Measured values reported in PubChem BioAssay AID2685 (National Center for Advancing Translational Sciences (NCATS), 2010).
The campaign covered roughly 320,000 compounds. About 2,100 (0.66%) were called active. This list was built around the results that the source calls inconclusive (neither active nor inactive); the mix of calls is not that of the screen. Calls follow the shape of the dose curve; as a rule, active = well fitted inhibition curve with a large enough effect in the signal ratio, with a control signal flat (not every such curve was filed as active); inconclusive = small, poorly fitted or top-dose-only effect, or effect the other way, or a change in a side signal; inactive = flat fitted curve, though single readings scatter; the % refers to the signal ratio. Potencies of inconclusive entries are doubtful fits and often do not repeat.

Assay: qHTS Assay for Lipid Storage Modulators in Drosophila S3 Cells
Details: BODIPY lipid droplet fluorescence, 18-24 h, cells fed with added oleic acid; lipid storage change, negative = inhibition: at 46.1 µM (top of the series) unless noted
Method in brief: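 Laser-scanning cytometry quantifies lipid droplet accumulation (500–530 nm total intensity; droplet/cell object ratio) in oleic acid-fed (400 uM added) Drosophila S3 cells treated with a concentration series. 20 uM Triacsin C defined 100% inhibition.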
% is scaled to controls: 0 for no effect and ±100 for the full control effect; potency is read from the fitted curve at half-maximal effect.

Potency, inconclusive:
CCOC(=O)N1CCN(Cc2nc3c(c(=O)[nH]c(=O)n3C)n2Cc2cc(C)ccc2C)CC1 1.3 µM [rising, partial curve], CCN(c1cccc(C)c1)S(=O)(=O)c1ccc2c(c1)NC(=O)CCS2 29.1 µM [falling, single point], Cc1sc2nc(CSC(C)C(=O)Nc3ccccn3)[nH]c(=O)c2c1C (stereo not given) 20.6 µM [falling, single point], CCCNC(=S)N(Cc1cc2cc(C)ccc2n2nnnc12)CC(C)(C)CN(C)C 0.58 µM [activator, single point], CCOC(=O)Nc1ccc2c(CN3CCN(S(=O)(=O)c4ccc(C(C)C)cc4)CC3)cc(=O)oc2c1 18.4 µM [activator, partial curve, poor fit], O=C(NC1CCCCC1)c1cc(S(=O)(=O)N2CCCCC2)ccc1N1CCOCC1 0.0046 µM [falling, full curve, poor fit], O=C(CSc1cccc2cccnc12)N/N=C/c1cccc(O)c1 20.6 µM [activator, single point]

Lipid storage change, negative = inhibition, inactive:
O=C(c1cc(-c2ccc3c(c2)OCO3)on1)N1CCN(c2ccc(F)cc2)CC1

Lipid storage change, negative = inhibition, inconclusive:
Cc1ccc(NC(=O)c2cnc3ccccc3n2)cc1C 15.1%, O=C(NCCCN1CCOCC1)c1ccc2c(=O)n(-c3ccc(F)c(Cl)c3)c(=S)[nH]c2c1 211%, COc1ccc(CNC(=O)Nc2cccc3ccccc23)cc1 -1.68%, Cc1ccc(-c2cccc(CN3CCN(C4CCN(C(C)C)CC4)C(CCO)C3)c2)o1 (stereo not given) 0.889%, CCCCN1C(=O)C(=O)N(CC(=O)c2ccc[nH]2)C1=O 16.8%, CSCCC(NC(=O)CCC(=O)OCC(=O)[C@@]1(O)CCC2[C@@H]3CCC4=CC(=O)C=C[C@]4(C)C3[C@@H](O)C[C@@]21C)C(=O)O (stereo not given in full) 20.6%, CC1CCCCC1NC(=O)COC(=O)Cc1ccc(Br)cc1 (stereo not given) -4.86%, O=C(NCCc1ccc2c(c1)OCO2)C1CCN(S(=O)(=O)c2ccc(Cl)cc2)CC1 21%, CC(C)(C)NC(=O)c1ccc2nccnc2c1 7.76%, COc1ccc(CCN(C)C(=O)c2c(C)nn(CC(C)C)c2Cl)cc1OC 79.6%, Cc1cccc(C)c1NC(=O)CNc1ncnc2sc(C)c(C)c12 4.99%, CC1Cc2ccccc2N1C1=CC(=O)CC(C)(C)C1 (stereo not given) -7.74%
